The source of these data is PubChem BioAssay AID651664 (NMMLSC, 2012).

The campaign covered roughly 1,800 compounds. Fewer than 10 were called active.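 How the source made its calls: active means inhibition of granule release above a set limit; inactive means the rest.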 This is one part of the list.

This assay is described as follows: LAMP-1 surface externalization blockers in TALL-104 cells – cell-based, flow cytometry, validation set (AID 651664). To be noted: TALL-104 LAMP-1 externalization, at 15.2 µM, active compounds read high, stimulated with thapsigargin and PMA.
As usually defined, the inhibition is the relative decrease from the control value, in per cent. In the case of `CC(C)(C)NC(=O)Cc1ccc(S(=O)(=O)N2CCCC2)s1`, the inhibition was inactive: -1.8%.

For `Clc1ccc(CSc2nnc(CN3CCOCC3)n2-c2ccccc2)cc1Cl`, the inhibition was inactive: 4.1%.

Turning to `Cc1ccc(S(=O)(=O)Cn2nnnc2CN(Cc2ccco2)Cc2cccs2)cc1`, the inhibition was inactive: 1.5%. To `CCC(C)NC(=O)Cn1cccc1C(=O)c1ccccc1` (stereo not drawn) belongs inactive: -0.2%. As for `CN1CCN(c2nc(-c3ccccc3)nc3c2oc2ccccc23)CC1`, the figure is inactive: 1.5%; as for `COc1cnn(-c2ccccc2)c(=O)c1SCc1ccc(Cl)cc1Cl`, inactive: 2.7%. As for `CCOC(=O)c1nn(-c2cccc(C)c2)c2nc(-c3ccccc3)c(C#N)c(=O)n12`, the figure is inactive: 3.8%; as for `Cc1ccccc1OCC(=O)Nc1cccc2nsnc12`, inactive: 1.6%; as for `Cc1onc(-c2ccccc2Cl)c1C(=O)N1CCN(C(=O)c2ccco2)CC1`, inactive: 1.3%. For the molecule `Cc1cc(C(=O)CSc2ccc(Cl)cc2)cc(C)c1OC(=S)N(C)C`, the inhibition was inactive: 0%. To `O=C1c2ccccc2C(=O)N1CCCCN(C(=O)c1ccco1)c1ccc(Cl)cc1` belongs inactive: -3.6%. To `COc1ccc(CNC(=O)C(c2ccc(C)o2)N(C(=O)c2csnn2)c2ccc(C(C)C)cc2)cc1` (stereo not drawn) belongs inactive: -1.9%; to `CC1=NC(=O)C(N=Nc2ccccc2)N1c1ccccc1` (stereo not drawn), inactive: -2.8%.

`COc1ccc(NC(=O)Cn2nnc(-c3ccccc3NC(=O)c3cccs3)n2)cc1`: the inhibition is inactive: -1.1%. To `CCCCN(C)C(=O)C1CCN(Cc2ccc(OCc3ccccc3)cc2)CC1` belongs inactive: 0.8%; to `CCOC(=O)c1ccc(N/C=C2\CCCCC2=O)cc1`, inactive: -0.3%. In the case of `COC(=O)c1ccc(/C=N\n2c(C)nnc2C)cc1`, the inhibition was inactive: 1.6%.

Turning to `O=S(=O)(c1cccs1)N1CN(Cc2ccccc2)c2nc3ccccc3nc21`, the inhibition was inactive: 4.3%. To `Cc1ccc(CN2C(=O)CCC2C(=O)NCc2ccco2)cc1` (stereo not drawn) belongs inactive: -1.9%. As for `COc1ccc(OC)c(S(=O)(=O)N2CCN(C34CC5CC(CC(C5)C3)C4)CC2)c1`, the figure is inactive: 1.6%; as for `Cc1nc(NCc2ccco2)c2oc3ccccc3c2n1`, inactive: -2.5%; as for `Nn1c(SCC(=O)N2CCN(S(=O)(=O)c3ccccc3)CC2)nnc1-c1cccs1`, inactive: -1.8%. `O=C1C(NS(=O)(=O)c2cccs2)=C(N2CCN(c3cccc(Cl)c3)CC2)C(=O)c2ccccc21`: the inhibition is inactive: 1.6%. On to `Cc1ccc(-c2c3c(=O)n(C)c(=O)n(C)c3cn2Cc2cccnc2)cc1`, for which the inhibition is inactive: -0.5%.

On to `Cc1cc(C)c2c(N)c(-c3nc4ccccc4[nH]3)sc2n1`, for which the inhibition was inactive: -4.9%. As for `O=C(Nc1ccc2oc(-c3cccnc3)nc2c1)c1ccc(Br)o1`, the figure is inactive: -0.3%. Consider `c1ccc(CSc2nnc(-c3cccnc3)o2)cc1`, for which the inhibition was inactive: 1.8%.

With `C=C(C)CN1C(=O)C(O)(CC(=O)c2ccc3c(c2)OCCO3)c2ccccc21` (stereo not drawn), the inhibition was inactive: 1.5%.

For the molecule `O=C(Nc1ccc(NC(=S)NC(=O)c2ccccc2Cl)cc1)c1cccc(Cl)c1`, the inhibition is inactive: 3.5%. `CCOc1ccc(/C(O)=C2/C(=O)C(=O)N(CC3CCCO3)C2c2ccc(C)o2)cc1` (stereo not drawn): the inhibition was inactive: -2.9%. Consider `c1ccc(COc2ccc(CN3CCN(c4ccccn4)CC3)cc2)cc1`, for which the inhibition was inactive: -1.3%.

With `CCN1C(=O)C(C(=O)Nc2ccc(OC)cc2)C2CC1(C)Oc1ccccc12` (stereo not drawn), the inhibition was inactive: -0.4%. To `COc1ccccc1CNC(=O)COC(=O)C1=COCCO1` belongs inactive: 0.1%; to `COC(=O)c1cc(NC(=O)CN(c2ccc3c(c2)OCO3)S(C)(=O)=O)ccc1Cl`, inactive: 1.7%; to `O=C(NCC1COc2ccccc2O1)c1cc2ccccc2o1` (stereo not drawn), inactive: 8.2%. `CCc1ccc(NC(=S)Nc2cccc(OC)c2)cc1`: the inhibition was inactive: -0.9%.

Consider `O=C(Nc1ccc2oc(=O)ccc2c1)c1cccnc1Cl`, for which the inhibition was inactive: -1.5%. As to `CC1CCCN(C(=O)C2CCN(CC3CC=CCC3)CC2)C1` (stereo not drawn), the inhibition is inactive: -1.1%.

For the molecule `Cc1ccccc1OCC1Cc2c(nc(N)c(C#N)c2N)O1` (stereo not drawn), the inhibition is inactive: -2.8%. To `O=C(/C=C/c1ccccc1)NCCSc1ccc(Cl)cc1` belongs inactive: 1.3%; to `N#CC(=C1CCCC1)c1nc(-c2ccccc2)cs1`, inactive: -1%. To `CCOC(=O)c1cccc(N2C(=O)C3C(C2=O)C2C=CC3C23CC3)c1` (stereo not drawn) belongs inactive: -3.8%; to `CC(=O)C(C)Oc1ncn(-c2ccccc2)n1` (stereo not drawn), inactive: -3%.

Turning to `CSc1nn(CCc2ccncc2)c(=S)s1`, the inhibition was inactive: 4.6%. As for `Cc1cccc(NCc2ccccc2O)c1C`, the inhibition was inactive: -1.3%. To `CC(C)Cn1c2c(c(O)c(C(=O)Nc3ccc(F)cc3)c1=O)CCCC2` belongs inactive: -2.4%; to `CCCCn1nnc(NC(=O)Cc2ccc(Cl)cc2)n1`, inactive: -2.5%; to `CC1=NN(Cc2ccccc2)C(=O)/C1=C\c1ccc(N(C)C)cc1`, inactive: 0.3%.

For `CCn1c(SCC(=O)N2CCCc3ccccc32)nnc1-c1ccco1`, the inhibition is inactive: -1.1%. To `COc1nnc(-c2ccc(N3CCOCC3)c(NC(=O)c3ccco3)c2)c2ccccc12` belongs inactive: -3.4%; to `Cc1cc(NC(=O)c2cccc3ccccc23)cc(C)c1OCC(=O)N1CCOCC1`, inactive: -2.8%; to `CC(c1ccco1)N(C(=O)Nc1ccc(Cl)cc1)c1ccccn1` (stereo not drawn), inactive: -1%.

As for `Cc1nn2cc(-c3ccccc3)nc2[nH]c1=O`, the inhibition is inactive: 2.4%. In the case of `N#Cc1c(N)n(CCOC(=O)c2cccc(Br)c2)c2nc3ccccc3nc12`, the inhibition is inactive: -0.6%. To `COc1ccc2c(-c3ccccc3)cc(N3CCOCC3)nc2c1` belongs inactive: -1.6%; to `O=C(c1ccccc1)[C@H]1CC=CC[C@H]1C(=O)O`, inactive: -0.5%; to `Cn1c(-c2ccccc2Br)n[nH]c1=S`, active: 89.2%. Regarding `CCCn1c(SCC(=O)Nc2cc(Cl)ccc2OC)n[nH]c1=O`, the inhibition was inactive: -3.1%.

For `CCOC(=O)c1cnn(-c2nc3c(C)cccc3s2)c1C(F)(F)F`, the inhibition was inactive: 9.1%. As for `CN(Cc1ccccc1)C(=O)N[C@@H](Cc1ccccc1)C(=O)O`, the figure is inactive: -4.9%; as for `COc1ccc(C2CC(=O)c3cnc(N)nc3C2)c(OC)c1` (stereo not drawn), inactive: -2.3%. As for `Nc1nc2ccc(-c3nc4ccccc4o3)cc2s1`, the figure is inactive: 0.1%; as for `CSc1ccccc1C(=O)NCc1ccc(S(N)(=O)=O)cc1`, inactive: -0.8%. As for `O=c1oc(Nc2ccccc2F)nc2ccccc12`, the inhibition is inactive: -3.8%.

As to `O=C(N/N=C/c1cccc([N+](=O)[O-])c1)C1CC(=O)N(c2ccc(Cl)cc2)C1` (stereo not drawn), the inhibition is inactive: 1.4%. In the case of `C=CCNc1nc(-c2ccc(Cl)cc2)cs1`, the inhibition is inactive: 2.2%. In the case of `CCOC(=O)c1c(C)oc2c1c1c(c3ccccc32)OCN(Cc2ccccn2)C1`, the inhibition was inactive: 0.1%.

`CN(C)C=NC1=NN(c2cccc(C(F)(F)F)c2)CC1`: the inhibition was inactive: 3.5%.

On to `N/C(=N\OS(=O)(=O)c1ccccc1)c1ccncc1`, for which the inhibition was inactive: -2.3%. As for `c1ccc(-n2c(SCC3CCCCO3)nnc2-c2cnccn2)cc1` (stereo not drawn), the figure is inactive: 1.1%.

With `COC(=O)c1c(C(C)=O)cnc2ccc(Br)cc12`, the inhibition was inactive: -0.8%. On to `CCN1C(=O)C(C)S/C1=N\S(=O)(=O)c1ccc(Cl)s1` (stereo not drawn), for which the inhibition is inactive: -2.2%. In the case of `CCOC(=O)C1CCN(C=Nc2cc(C)on2)CC1`, the inhibition was inactive: 5.4%. Take `COc1cc2[nH]c3c(N4CCN(c5ccccn5)CC4)ncnc3c2cc1OC`: the inhibition is inactive: 4.3%.

Turning to `CC(=O)N1CCN(c2ccc([N+](=O)[O-])c(NCC3CCCO3)c2)CC1` (stereo not drawn), the inhibition was inactive: -1.3%. As to `Cc1cnc(C(=O)Nc2ccccc2F)cn1`, the inhibition was inactive: -1.1%.

Turning to `CCCOC(=O)CN1C(=O)c2ccccc2C1=O`, the inhibition is inactive: 0.3%. Consider `O=C(Nc1ccccc1)N(C1=NCCCCS1)c1ccccc1`, for which the inhibition was inactive: -1.2%. For `Cc1cc2c(c(=O)n1C)C(C(C)C)C(C#N)=C(N)O2` (stereo not drawn), the inhibition was inactive: 0.7%. For the molecule `FC(F)(F)c1cccc(NC(=S)N2CCN(c3cccc(C(F)(F)F)c3)CC2)c1`, the inhibition was inactive: -4.7%.

With `N#Cc1ccc(C(=O)Nc2ccc(S(=O)(=O)NC3=NCCCCC3)cc2)cc1`, the inhibition is inactive: 4.4%. To `O=C(c1ccc(S(=O)(=O)N2CCCCCC2)cc1)N1CCC(CN2C(=O)c3cccc4cccc(c34)C2=O)CC1` belongs inactive: 0.6%; to `Cc1cc(/C=N\NC(=O)c2cccs2)c(C)n1-c1ccc2ncccc2c1`, inactive: -1.6%; to `COc1cc(C2N=C(c3ccccc3)NO2)cc(Br)c1O` (stereo not drawn), inactive: 0.8%. `O=C(CSc1ccccn1)N1CCN(C(=O)CSc2ccccn2)CC1`: the inhibition was inactive: 0.4%.

As for `O=C(CSc1nc2ccccc2[nH]1)Nc1cc(C(F)(F)F)ccc1N1CCOCC1`, the inhibition is inactive: -2.8%. To `OCCCN1c2ccccc2Nc2nnc(-c3ccccc3)cc21` belongs inactive: -0.6%; to `COCCn1c(SCc2nc3cc(OC)c(OC)cc3c(=O)[nH]2)nnc1-c1ccncc1`, inactive: 2%; to `CCOC(=O)c1sc(NC(=O)C(CC)Sc2nc3ccccc3[nH]2)nc1C` (stereo not drawn), inactive: -2.5%. As for `CCN(CC(=O)NC(=O)NC1CCCCC1)Cc1nc2ccccc2c(=O)[nH]1`, the figure is inactive: -0.9%. Regarding `CC(C)(C)OC(=O)NCCCC(CCCNC(=O)OC(C)(C)C)C(=O)O`, the inhibition was inactive: -2.1%.

In the case of `N#C/C(=C1\CCCN1)c1nc2ccccc2c(=O)[nH]1`, the inhibition is inactive: -2.4%.

As for `O=C(/C=C/Nc1ccccc1Br)c1ccccn1`, the inhibition was inactive: 4.8%. Take `CC(C)(C(N)=O)N1CCN(c2ncc(C(F)(F)F)cc2Cl)CC1`: the inhibition is inactive: -2.7%. For the molecule `COc1ccccc1Nc1nnc(SCC(=O)c2cc(C)n(CC3CCCO3)c2C)s1` (stereo not drawn), the inhibition was inactive: -2.7%. As for `O=C(Nc1ccc2c(c1)Cc1ccccc1-2)c1cc2ccccc2o1`, the figure is inactive: 1.7%. As for `Cc1cc(NC(=O)CSc2nnc(-c3ccc(Br)o3)n2Cc2ccccc2)no1`, the figure is inactive: -2.5%. As for `COc1ccc(CCNC(=O)COC(=O)c2cnccn2)cc1`, the figure is inactive: 6.8%.
